Results taken from the supplement of paper PMC6411743.
± gives the standard deviation of the averaged measurements. The list shows a part of the results.

Protein sequences, listed by entry. Tags and fused reporters are not part of them. Lines headed by an entry give the natural chain unless they say otherwise; changes in a name come on top.
UniProt Q9NRR5, whole entry: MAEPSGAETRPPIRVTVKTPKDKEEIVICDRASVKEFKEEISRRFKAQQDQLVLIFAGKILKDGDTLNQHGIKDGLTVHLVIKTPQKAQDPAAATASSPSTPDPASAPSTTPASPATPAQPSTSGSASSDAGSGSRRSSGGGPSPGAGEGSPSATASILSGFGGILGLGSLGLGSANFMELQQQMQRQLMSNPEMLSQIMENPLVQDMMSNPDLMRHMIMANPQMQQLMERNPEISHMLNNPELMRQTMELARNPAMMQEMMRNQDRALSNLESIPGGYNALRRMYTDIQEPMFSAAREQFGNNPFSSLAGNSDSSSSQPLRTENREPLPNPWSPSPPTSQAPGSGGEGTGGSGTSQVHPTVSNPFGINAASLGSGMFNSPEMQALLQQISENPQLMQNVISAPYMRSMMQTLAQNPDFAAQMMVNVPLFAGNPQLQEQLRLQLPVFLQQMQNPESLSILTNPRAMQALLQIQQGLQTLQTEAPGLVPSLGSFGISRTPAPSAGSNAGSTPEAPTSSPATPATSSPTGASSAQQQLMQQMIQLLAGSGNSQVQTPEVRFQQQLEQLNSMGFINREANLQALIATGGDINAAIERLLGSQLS
UniProt Q9NRF9: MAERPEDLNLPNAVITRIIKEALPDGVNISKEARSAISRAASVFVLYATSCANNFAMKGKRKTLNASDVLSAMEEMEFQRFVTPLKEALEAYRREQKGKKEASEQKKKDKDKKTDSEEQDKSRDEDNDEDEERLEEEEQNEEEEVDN
UniProt Q9H7Z3: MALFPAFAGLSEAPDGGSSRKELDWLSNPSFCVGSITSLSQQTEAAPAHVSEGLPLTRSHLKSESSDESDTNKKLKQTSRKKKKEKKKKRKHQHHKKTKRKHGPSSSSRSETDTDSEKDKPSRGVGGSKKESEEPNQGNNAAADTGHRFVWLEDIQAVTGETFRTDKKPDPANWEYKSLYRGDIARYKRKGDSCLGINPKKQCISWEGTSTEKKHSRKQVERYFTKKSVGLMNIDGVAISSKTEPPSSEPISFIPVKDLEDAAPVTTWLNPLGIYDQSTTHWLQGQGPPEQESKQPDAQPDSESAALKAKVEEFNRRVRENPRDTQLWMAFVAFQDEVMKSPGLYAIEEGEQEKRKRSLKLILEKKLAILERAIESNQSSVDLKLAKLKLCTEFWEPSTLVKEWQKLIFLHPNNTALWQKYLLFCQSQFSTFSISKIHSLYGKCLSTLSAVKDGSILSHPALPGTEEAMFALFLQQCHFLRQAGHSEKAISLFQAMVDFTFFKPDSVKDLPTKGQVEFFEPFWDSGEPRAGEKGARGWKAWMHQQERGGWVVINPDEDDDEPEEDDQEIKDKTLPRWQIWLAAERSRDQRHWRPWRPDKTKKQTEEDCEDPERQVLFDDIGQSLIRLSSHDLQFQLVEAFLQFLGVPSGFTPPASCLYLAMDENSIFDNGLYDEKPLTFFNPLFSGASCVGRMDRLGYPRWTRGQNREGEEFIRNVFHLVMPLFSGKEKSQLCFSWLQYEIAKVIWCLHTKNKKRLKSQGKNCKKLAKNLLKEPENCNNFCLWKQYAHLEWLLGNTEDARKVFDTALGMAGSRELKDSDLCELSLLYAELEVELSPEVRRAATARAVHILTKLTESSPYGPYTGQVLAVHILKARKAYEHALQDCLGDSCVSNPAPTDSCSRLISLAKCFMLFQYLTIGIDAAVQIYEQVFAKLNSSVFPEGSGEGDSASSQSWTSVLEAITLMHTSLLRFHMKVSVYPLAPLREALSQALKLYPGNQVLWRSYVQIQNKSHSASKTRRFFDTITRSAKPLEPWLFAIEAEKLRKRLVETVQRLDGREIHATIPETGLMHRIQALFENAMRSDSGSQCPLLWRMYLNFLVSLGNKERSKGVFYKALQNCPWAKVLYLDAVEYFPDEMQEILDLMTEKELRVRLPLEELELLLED
UniProt Q9H582: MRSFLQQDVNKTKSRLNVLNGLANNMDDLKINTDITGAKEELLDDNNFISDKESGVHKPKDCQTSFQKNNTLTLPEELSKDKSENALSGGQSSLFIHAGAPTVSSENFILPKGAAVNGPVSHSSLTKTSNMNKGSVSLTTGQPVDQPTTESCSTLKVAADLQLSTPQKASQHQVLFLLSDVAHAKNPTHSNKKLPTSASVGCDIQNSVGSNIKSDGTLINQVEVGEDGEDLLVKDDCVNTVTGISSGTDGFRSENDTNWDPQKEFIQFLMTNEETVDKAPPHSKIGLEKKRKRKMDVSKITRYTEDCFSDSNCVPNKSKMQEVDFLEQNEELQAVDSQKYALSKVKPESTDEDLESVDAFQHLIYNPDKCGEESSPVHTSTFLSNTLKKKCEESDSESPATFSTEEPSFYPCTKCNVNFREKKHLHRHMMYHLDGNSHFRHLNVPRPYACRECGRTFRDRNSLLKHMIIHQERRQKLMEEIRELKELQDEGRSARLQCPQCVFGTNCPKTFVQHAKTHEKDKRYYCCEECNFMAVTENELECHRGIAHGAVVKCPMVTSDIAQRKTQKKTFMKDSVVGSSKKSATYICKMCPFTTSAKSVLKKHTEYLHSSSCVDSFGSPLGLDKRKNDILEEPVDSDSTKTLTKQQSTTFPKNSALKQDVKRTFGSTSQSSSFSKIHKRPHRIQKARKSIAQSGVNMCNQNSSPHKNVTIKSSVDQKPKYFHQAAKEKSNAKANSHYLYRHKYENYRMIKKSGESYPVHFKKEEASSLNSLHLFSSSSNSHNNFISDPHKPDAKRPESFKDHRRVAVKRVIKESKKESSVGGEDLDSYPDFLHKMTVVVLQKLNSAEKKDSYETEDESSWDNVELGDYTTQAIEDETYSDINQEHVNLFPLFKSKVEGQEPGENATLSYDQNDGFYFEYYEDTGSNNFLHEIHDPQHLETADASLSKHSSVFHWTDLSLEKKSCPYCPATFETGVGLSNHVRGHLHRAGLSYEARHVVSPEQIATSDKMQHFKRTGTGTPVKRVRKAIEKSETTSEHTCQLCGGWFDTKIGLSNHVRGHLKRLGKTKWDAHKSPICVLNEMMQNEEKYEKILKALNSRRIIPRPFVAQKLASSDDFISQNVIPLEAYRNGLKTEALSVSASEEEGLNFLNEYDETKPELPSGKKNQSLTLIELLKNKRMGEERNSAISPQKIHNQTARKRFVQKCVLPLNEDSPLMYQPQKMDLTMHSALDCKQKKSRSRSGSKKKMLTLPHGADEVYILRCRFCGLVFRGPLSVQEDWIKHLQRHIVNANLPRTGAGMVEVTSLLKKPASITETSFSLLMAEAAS
UniProt Q9H211: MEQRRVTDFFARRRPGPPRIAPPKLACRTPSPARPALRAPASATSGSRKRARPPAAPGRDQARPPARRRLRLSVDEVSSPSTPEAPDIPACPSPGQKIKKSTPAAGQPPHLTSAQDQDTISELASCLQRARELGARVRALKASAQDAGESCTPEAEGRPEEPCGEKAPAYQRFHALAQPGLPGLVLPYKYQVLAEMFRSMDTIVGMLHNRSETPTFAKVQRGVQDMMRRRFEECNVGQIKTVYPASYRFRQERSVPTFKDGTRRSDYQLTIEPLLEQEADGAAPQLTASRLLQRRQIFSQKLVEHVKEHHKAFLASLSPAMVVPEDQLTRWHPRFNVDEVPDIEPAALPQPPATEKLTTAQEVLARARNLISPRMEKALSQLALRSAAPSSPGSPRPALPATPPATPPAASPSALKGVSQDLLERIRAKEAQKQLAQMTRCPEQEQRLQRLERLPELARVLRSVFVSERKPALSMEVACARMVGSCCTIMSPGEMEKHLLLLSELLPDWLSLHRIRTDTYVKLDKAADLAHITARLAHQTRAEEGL
UniProt Q9NPA8: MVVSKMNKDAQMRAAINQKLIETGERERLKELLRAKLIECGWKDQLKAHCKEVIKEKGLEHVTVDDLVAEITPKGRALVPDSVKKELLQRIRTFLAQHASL
UniProt Q9H1E5: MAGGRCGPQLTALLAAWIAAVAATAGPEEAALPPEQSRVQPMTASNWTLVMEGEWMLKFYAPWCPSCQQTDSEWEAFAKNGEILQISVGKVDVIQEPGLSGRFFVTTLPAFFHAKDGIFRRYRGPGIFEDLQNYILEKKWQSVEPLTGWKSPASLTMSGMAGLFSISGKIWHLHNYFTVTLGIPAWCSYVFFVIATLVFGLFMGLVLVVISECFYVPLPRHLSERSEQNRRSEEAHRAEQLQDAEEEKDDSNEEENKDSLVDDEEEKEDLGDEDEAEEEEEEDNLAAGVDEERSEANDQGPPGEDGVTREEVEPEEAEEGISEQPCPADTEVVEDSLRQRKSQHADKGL
UniProt Q9NPA0: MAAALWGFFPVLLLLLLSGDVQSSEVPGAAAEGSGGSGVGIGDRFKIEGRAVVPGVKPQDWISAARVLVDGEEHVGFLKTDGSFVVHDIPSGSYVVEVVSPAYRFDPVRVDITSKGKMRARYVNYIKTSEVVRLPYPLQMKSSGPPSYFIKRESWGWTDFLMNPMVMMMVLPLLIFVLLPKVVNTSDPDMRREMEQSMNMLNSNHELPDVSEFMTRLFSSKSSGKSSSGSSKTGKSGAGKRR
UniProt Q9H2C0: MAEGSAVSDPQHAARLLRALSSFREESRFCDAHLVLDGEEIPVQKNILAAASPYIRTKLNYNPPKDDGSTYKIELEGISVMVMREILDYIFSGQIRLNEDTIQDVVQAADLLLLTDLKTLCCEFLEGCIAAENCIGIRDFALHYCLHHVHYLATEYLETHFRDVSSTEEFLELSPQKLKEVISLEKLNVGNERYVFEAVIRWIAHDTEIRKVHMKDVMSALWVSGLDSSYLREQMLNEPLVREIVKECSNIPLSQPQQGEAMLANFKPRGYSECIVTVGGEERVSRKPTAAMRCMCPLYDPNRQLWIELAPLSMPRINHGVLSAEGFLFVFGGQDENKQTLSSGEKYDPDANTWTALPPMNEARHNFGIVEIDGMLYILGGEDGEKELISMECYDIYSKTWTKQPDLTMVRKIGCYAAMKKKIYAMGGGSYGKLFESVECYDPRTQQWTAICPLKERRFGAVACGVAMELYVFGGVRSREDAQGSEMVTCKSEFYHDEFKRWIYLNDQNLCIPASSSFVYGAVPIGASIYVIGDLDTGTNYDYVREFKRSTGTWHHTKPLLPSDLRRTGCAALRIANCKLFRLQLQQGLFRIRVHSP
UniProt Q9NP87, whole entry: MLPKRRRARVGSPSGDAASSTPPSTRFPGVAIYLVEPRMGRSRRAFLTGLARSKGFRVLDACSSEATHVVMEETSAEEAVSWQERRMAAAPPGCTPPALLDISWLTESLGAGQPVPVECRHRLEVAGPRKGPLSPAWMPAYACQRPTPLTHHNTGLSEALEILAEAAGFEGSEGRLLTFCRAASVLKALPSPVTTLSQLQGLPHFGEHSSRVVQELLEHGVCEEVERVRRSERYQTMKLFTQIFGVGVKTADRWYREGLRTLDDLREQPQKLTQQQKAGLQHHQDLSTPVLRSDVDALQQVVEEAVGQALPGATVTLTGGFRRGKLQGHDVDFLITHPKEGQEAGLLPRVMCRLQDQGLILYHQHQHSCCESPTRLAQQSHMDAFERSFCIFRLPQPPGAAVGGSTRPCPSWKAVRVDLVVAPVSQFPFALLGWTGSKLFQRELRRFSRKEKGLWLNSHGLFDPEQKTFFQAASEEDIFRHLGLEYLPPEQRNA
UniProt Q9HBL7: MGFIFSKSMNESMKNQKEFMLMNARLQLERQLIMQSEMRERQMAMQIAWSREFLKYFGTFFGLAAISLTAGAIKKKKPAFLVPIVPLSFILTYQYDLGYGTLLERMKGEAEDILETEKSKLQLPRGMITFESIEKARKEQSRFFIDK
UniProt Q9NP72: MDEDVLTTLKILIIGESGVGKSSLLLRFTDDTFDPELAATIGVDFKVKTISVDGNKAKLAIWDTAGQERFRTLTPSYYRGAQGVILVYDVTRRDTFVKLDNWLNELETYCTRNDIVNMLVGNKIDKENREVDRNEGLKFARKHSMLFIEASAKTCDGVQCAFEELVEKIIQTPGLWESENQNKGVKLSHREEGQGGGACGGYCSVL
UniProt Q9H081: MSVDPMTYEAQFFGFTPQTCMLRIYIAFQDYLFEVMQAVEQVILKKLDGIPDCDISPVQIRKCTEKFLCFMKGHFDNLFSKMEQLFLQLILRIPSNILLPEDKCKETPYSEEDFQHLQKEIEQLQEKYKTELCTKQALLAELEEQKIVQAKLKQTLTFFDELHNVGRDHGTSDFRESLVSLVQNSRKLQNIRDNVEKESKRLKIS
UniProt Q9H1D9: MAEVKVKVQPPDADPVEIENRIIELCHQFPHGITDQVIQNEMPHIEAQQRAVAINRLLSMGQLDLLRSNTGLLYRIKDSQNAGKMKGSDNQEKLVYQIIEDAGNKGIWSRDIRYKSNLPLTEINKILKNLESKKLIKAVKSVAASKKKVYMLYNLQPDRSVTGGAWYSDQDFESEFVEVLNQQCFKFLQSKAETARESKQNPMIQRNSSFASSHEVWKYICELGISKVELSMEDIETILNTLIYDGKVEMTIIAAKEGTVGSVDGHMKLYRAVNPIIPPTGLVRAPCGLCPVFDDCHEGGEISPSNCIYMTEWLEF

Compound: Nc1nc2c(ncn2[C@@H]2O[C@H](COP(=O)(O)OP(=O)(O)OP(=O)(O)O)[C@@H](O)[C@H]2O)c(=O)[nH]1 [guanosine triphosphate]
Experiment: NP40-soluble protein abundance relative to vehicle (solubility fold change) (ratio); higher = more soluble protein in presence of GTP
Method in brief: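 Each value is a fold change relative to the detergent-processed vehicle, calculated per replicate from vsn-normalised intensities. Jurkat crude lysate received eight concentrations (0.1 to 10 mM) for 10 min at room temperature and 3 min at 37 °C, then was solubilised in 0.8% NP40 with benzonase (60 min, 4 °C). The ultracentrifuged supernatant was TMT-labelled and run by LC-MS/MS in three independent experiments.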

UBQLN4 (UniProt Q9NRR5) was tested. Which NP40-soluble protein abundance (concentration: 0.1mM) did it give?
Its NP40-soluble protein abundance is 0.926 ± 0.049.

And the NP40-soluble protein abundance (concentration: 0.5mM)?
The NP40-soluble protein abundance was 1 ± 0.067.

And the NP40-soluble protein abundance (concentration: 1mM)?
The NP40-soluble protein abundance was 1.02 ± 0.08.

And the NP40-soluble protein abundance (concentration: 2mM)?
The NP40-soluble protein abundance was 0.958 ± 0.041.

And the NP40-soluble protein abundance (concentration: 4mM)?
The NP40-soluble protein abundance was 0.999 ± 0.032.

And the NP40-soluble protein abundance (concentration: 6mM)?
Its NP40-soluble protein abundance is 0.933 ± 0.059.

What about the NP40-soluble protein abundance (concentration: 8mM) of the same target?
Its NP40-soluble protein abundance is 0.9666 ± 0.0095.

And the NP40-soluble protein abundance (concentration: 10mM)?
The NP40-soluble protein abundance was 0.997 ± 0.018.

What does the source list for POLE3 (UniProt Q9NRF9)?
NP40-soluble protein abundance (concentration: 0.1mM): 0.976 ± 0.053; NP40-soluble protein abundance (concentration: 0.5mM): 0.933 ± 0.034; NP40-soluble protein abundance (concentration: 1mM): 1.05 ± 0.093; NP40-soluble protein abundance (concentration: 2mM): 1.02 ± 0.043; NP40-soluble protein abundance (concentration: 4mM): 0.982 ± 0.041; NP40-soluble protein abundance (concentration: 6mM): 1.02 ± 0.056; NP40-soluble protein abundance (concentration: 8mM): 1.03 ± 0.078; NP40-soluble protein abundance (concentration: 10mM): 1.05 ± 0.056

How did the NP40-soluble protein abundance (concentration: 0.1mM) turn out when UniProt Q9H7Z3 was run?
Its NP40-soluble protein abundance is 1.08 ± 0.076.

And the NP40-soluble protein abundance (concentration: 0.5mM)?
Its NP40-soluble protein abundance is 1.17 ± 0.024.

And the NP40-soluble protein abundance (concentration: 1mM)?
Its NP40-soluble protein abundance is 1.03 ± 0.032.

What about the NP40-soluble protein abundance (concentration: 2mM) of the same target?
The NP40-soluble protein abundance was 1.13 ± 0.054.

And the NP40-soluble protein abundance (concentration: 4mM)?
Its NP40-soluble protein abundance is 1.23 ± 0.12.

And the NP40-soluble protein abundance (concentration: 6mM)?
The NP40-soluble protein abundance was 1.254 ± 0.0074.

What about the NP40-soluble protein abundance (concentration: 8mM) of the same target?
The NP40-soluble protein abundance was 1.21 ± 0.045.

And the NP40-soluble protein abundance (concentration: 10mM)?
Its NP40-soluble protein abundance is 1.15 ± 0.049.

With UniProt Q9H582 and related entries as the target, how does the NP40-soluble protein abundance (concentration: 0.1mM) read?
The NP40-soluble protein abundance was 1.27 ± 0.24.

And the NP40-soluble protein abundance (concentration: 0.5mM)?
The NP40-soluble protein abundance was 1.17 ± 0.22.

What about the NP40-soluble protein abundance (concentration: 1mM) of the same target?
Its NP40-soluble protein abundance is 1.15 ± 0.053.

And the NP40-soluble protein abundance (concentration: 2mM)?
The NP40-soluble protein abundance was 1.091 ± 0.0033.

And the NP40-soluble protein abundance (concentration: 4mM)?
Its NP40-soluble protein abundance is 1.14 ± 0.02.

And the NP40-soluble protein abundance (concentration: 6mM)?
Its NP40-soluble protein abundance is 1.27 ± 0.11.

What about the NP40-soluble protein abundance (concentration: 8mM) of the same target?
The NP40-soluble protein abundance was 1.12 ± 0.081.

And the NP40-soluble protein abundance (concentration: 10mM)?
Its NP40-soluble protein abundance is 1.26 ± 0.14.

How did the NP40-soluble protein abundance (concentration: 0.1mM) turn out when CDT1 (UniProt Q9H211) was run?
Its NP40-soluble protein abundance is 0.913 ± 0.082.

And the NP40-soluble protein abundance (concentration: 0.5mM)?
Its NP40-soluble protein abundance is 0.929 ± 0.11.

And the NP40-soluble protein abundance (concentration: 1mM)?
Its NP40-soluble protein abundance is 0.945 ± 0.067.

And the NP40-soluble protein abundance (concentration: 2mM)?
The NP40-soluble protein abundance was 0.943 ± 0.022.

What about the NP40-soluble protein abundance (concentration: 4mM) of the same target?
The NP40-soluble protein abundance was 0.961 ± 0.028.

What about the NP40-soluble protein abundance (concentration: 6mM) of the same target?
The NP40-soluble protein abundance was 0.972 ± 0.051.

And the NP40-soluble protein abundance (concentration: 8mM)?
The NP40-soluble protein abundance was 0.984 ± 0.004.

What about the NP40-soluble protein abundance (concentration: 10mM) of the same target?
The NP40-soluble protein abundance was 1 ± 0.11.

Which results are given for UniProt Q9NPA8 and related entries?
NP40-soluble protein abundance (concentration: 0.1mM): 0.933 ± 0.06; NP40-soluble protein abundance (concentration: 0.5mM): 0.951 ± 0.11; NP40-soluble protein abundance (concentration: 1mM): 1.05 ± 0.095; NP40-soluble protein abundance (concentration: 2mM): 0.947 ± 0.14; NP40-soluble protein abundance (concentration: 4mM): 0.901 ± 0.13; NP40-soluble protein abundance (concentration: 6mM): 0.936 ± 0.17; NP40-soluble protein abundance (concentration: 8mM): 0.861 ± 0.1; NP40-soluble protein abundance (concentration: 10mM): 0.892 ± 0.083

Which results are given for UniProt Q9H1E5?
NP40-soluble protein abundance (concentration: 0.1mM): 0.993 ± 0.1; NP40-soluble protein abundance (concentration: 0.5mM): 0.912 ± 0.052; NP40-soluble protein abundance (concentration: 1mM): 0.896 ± 0.053; NP40-soluble protein abundance (concentration: 2mM): 0.866 ± 0.062; NP40-soluble protein abundance (concentration: 4mM): 0.971 ± 0.06; NP40-soluble protein abundance (concentration: 6mM): 0.873 ± 0.061; NP40-soluble protein abundance (concentration: 8mM): 0.872 ± 0.11; NP40-soluble protein abundance (concentration: 10mM): 0.88 ± 0.096

With UniProt Q9NPA0 as the target, how does the NP40-soluble protein abundance (concentration: 0.1mM) read?
Its NP40-soluble protein abundance is 0.998 ± 0.019.

What about the NP40-soluble protein abundance (concentration: 0.5mM) of the same target?
Its NP40-soluble protein abundance is 1.03 ± 0.024.

And the NP40-soluble protein abundance (concentration: 1mM)?
Its NP40-soluble protein abundance is 0.9816 ± 0.0095.

And the NP40-soluble protein abundance (concentration: 2mM)?
Its NP40-soluble protein abundance is 1 ± 0.024.

What about the NP40-soluble protein abundance (concentration: 4mM) of the same target?
Its NP40-soluble protein abundance is 0.9974 ± 0.0027.

And the NP40-soluble protein abundance (concentration: 6mM)?
Its NP40-soluble protein abundance is 0.941 ± 0.015.

What about the NP40-soluble protein abundance (concentration: 8mM) of the same target?
The NP40-soluble protein abundance was 0.969 ± 0.024.

What about the NP40-soluble protein abundance (concentration: 10mM) of the same target?
The NP40-soluble protein abundance was 0.947 ± 0.035.

What does the source list for GAN (UniProt Q9H2C0)?
NP40-soluble protein abundance (concentration: 0.1mM): 1.14 ± 0.063; NP40-soluble protein abundance (concentration: 0.5mM): 1.06 ± 0.02; NP40-soluble protein abundance (concentration: 1mM): 1.01 ± 0.064; NP40-soluble protein abundance (concentration: 2mM): 1.03 ± 0.056; NP40-soluble protein abundance (concentration: 4mM): 1.07 ± 0.033; NP40-soluble protein abundance (concentration: 6mM): 1.04 ± 0.043; NP40-soluble protein abundance (concentration: 8mM): 1.01 ± 0.052; NP40-soluble protein abundance (concentration: 10mM): 0.96 ± 0.068

How did the NP40-soluble protein abundance (concentration: 0.1mM) turn out when UniProt Q9NP87 was run?
Its NP40-soluble protein abundance is 1.26 ± 0.16.

What about the NP40-soluble protein abundance (concentration: 0.5mM) of the same target?
The NP40-soluble protein abundance was 1.18 ± 0.17.

And the NP40-soluble protein abundance (concentration: 1mM)?
The NP40-soluble protein abundance was 1.1 ± 0.026.

And the NP40-soluble protein abundance (concentration: 2mM)?
Its NP40-soluble protein abundance is 1.12 ± 0.075.

And the NP40-soluble protein abundance (concentration: 4mM)?
The NP40-soluble protein abundance was 1.18 ± 0.074.

And the NP40-soluble protein abundance (concentration: 6mM)?
Its NP40-soluble protein abundance is 1.04 ± 0.051.

And the NP40-soluble protein abundance (concentration: 8mM)?
The NP40-soluble protein abundance was 1.16 ± 0.031.

And the NP40-soluble protein abundance (concentration: 10mM)?
The NP40-soluble protein abundance was 1.02 ± 0.046.

What does the source list for UniProt Q9HBL7?
NP40-soluble protein abundance (concentration: 0.1mM): 0.94558 ± 0.00013; NP40-soluble protein abundance (concentration: 0.5mM): 0.9332 ± 0.0089; NP40-soluble protein abundance (concentration: 1mM): 0.886 ± 0.026; NP40-soluble protein abundance (concentration: 2mM): 0.883 ± 0.012; NP40-soluble protein abundance (concentration: 4mM): 0.908 ± 0.026; NP40-soluble protein abundance (concentration: 6mM): 0.846 ± 0.018; NP40-soluble protein abundance (concentration: 8mM): 0.823 ± 0.014; NP40-soluble protein abundance (concentration: 10mM): 0.8551 ± 0.0062

Which results are given for UniProt Q9NP72 and related entries?
NP40-soluble protein abundance (concentration: 0.1mM): 1 ± 0.028; NP40-soluble protein abundance (concentration: 0.5mM): 1 ± 0.012; NP40-soluble protein abundance (concentration: 1mM): 0.907 ± 0.041; NP40-soluble protein abundance (concentration: 2mM): 0.893 ± 0.039; NP40-soluble protein abundance (concentration: 4mM): 0.878 ± 0.075; NP40-soluble protein abundance (concentration: 6mM): 0.888 ± 0.062; NP40-soluble protein abundance (concentration: 8mM): 0.85 ± 0.096; NP40-soluble protein abundance (concentration: 10mM): 0.845 ± 0.1

Which results are given for MIS12 (UniProt Q9H081)?
NP40-soluble protein abundance (concentration: 0.1mM): 1.22 ± 0.043; NP40-soluble protein abundance (concentration: 0.5mM): 1.04 ± 0.026; NP40-soluble protein abundance (concentration: 1mM): 1.15 ± 0.11; NP40-soluble protein abundance (concentration: 2mM): 1.06 ± 0.034; NP40-soluble protein abundance (concentration: 4mM): 1.19 ± 0.057; NP40-soluble protein abundance (concentration: 6mM): 1.03 ± 0.055; NP40-soluble protein abundance (concentration: 8mM): 1.2 ± 0.061; NP40-soluble protein abundance (concentration: 10mM): 1.23 ± 0.3

UniProt Q9HDC9-2|Q9HDC9 was tested. Which NP40-soluble protein abundance (concentration: 0.1mM) did it give?
The NP40-soluble protein abundance was 0.959 ± 0.018.

And the NP40-soluble protein abundance (concentration: 0.5mM)?
The NP40-soluble protein abundance was 0.984 ± 0.013.

And the NP40-soluble protein abundance (concentration: 1mM)?
Its NP40-soluble protein abundance is 0.898 ± 0.027.

What about the NP40-soluble protein abundance (concentration: 2mM) of the same target?
The NP40-soluble protein abundance was 0.88 ± 0.023.

What about the NP40-soluble protein abundance (concentration: 4mM) of the same target?
Its NP40-soluble protein abundance is 0.861 ± 0.042.

What about the NP40-soluble protein abundance (concentration: 6mM) of the same target?
Its NP40-soluble protein abundance is 0.872 ± 0.03.

What about the NP40-soluble protein abundance (concentration: 8mM) of the same target?
The NP40-soluble protein abundance was 0.861 ± 0.044.

What about the NP40-soluble protein abundance (concentration: 10mM) of the same target?
Its NP40-soluble protein abundance is 0.845 ± 0.059.

For POLR3F (UniProt Q9H1D9), which NP40-soluble protein abundance (concentration: 0.1mM) is on record?
The NP40-soluble protein abundance was 1.14 ± 0.14.

And the NP40-soluble protein abundance (concentration: 0.5mM)?
Its NP40-soluble protein abundance is 1.14 ± 0.11.

And the NP40-soluble protein abundance (concentration: 1mM)?
The NP40-soluble protein abundance was 1.13 ± 0.12.

And the NP40-soluble protein abundance (concentration: 2mM)?
Its NP40-soluble protein abundance is 1.14 ± 0.098.

What about the NP40-soluble protein abundance (concentration: 4mM) of the same target?
The NP40-soluble protein abundance was 1.111 ± 0.0077.

And the NP40-soluble protein abundance (concentration: 6mM)?
Its NP40-soluble protein abundance is 1.18 ± 0.15.

What about the NP40-soluble protein abundance (concentration: 8mM) of the same target?
Its NP40-soluble protein abundance is 1.14 ± 0.1.

And the NP40-soluble protein abundance (concentration: 10mM)?
The NP40-soluble protein abundance was 1.09 ± 0.079.
